For at least one entry, the source does not settle the construct or the ends of the probe. At least one verdict was read from the data and is not stated in words by the source.
Test system: PpHY5 (Pinus pinaster)
Test: EMSA
Settings: EMSA buffer; recombinant protein; label: 5'-biotin; letters put together from the description

## ACAACAGACTGGTAAGGCACACGTGCTTCCACGAGATCCACTAACTTGCGCGGGTGTTTACACACCTAACCACTCCGGAGCTTCCATGCT (double strand) [probe A2 (PADT-A 281-370)]
  binding result: binds
